In all, about 52,000 sequences went through this assay and about 210 (0.4%) were called active.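 How the source made its calls: active means gene whose silencing raises cell survival under the drug, median off-target-corrected z-score across its silencing RNAs 2 or more; inactive means the rest.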 Some of the results follow.

This assay is described as follows: Resistance to Poly (ADP-Ribose) Polymerase inhibitor: Gene Identification via Genome-wide siRNA Screen. Conditions: mouse BRCA2 R2336H ES cells, olaparib, CellTiter-Glo viability; stronger effect = higher value. The method, boiled down:
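Mouse BRCA2 R2336H ES cells were reverse-transfected with siRNA (20 nM final), treated at 48 h with 500 nM olaparib, and read by CellTiter-Glo after 72 h. Scores: MAD-based z per siRNA, median per gene, seed off-target correction.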
On the technique in general: In ATP-based viability assays light output follows the ATP content of the culture.
Take GGAUGAGAAUGGCACCAGUTT against Prima1: the z-score was inactive: -0.878.

As to GGAUCAGGAAGGAUUCGGATT against Zfp84, the z-score was inactive: -0.498.

As for CCCAGGUGAUUCUGAUAUUTT against Rpl30, the z-score is inactive: -2.1.

Take GGGUGAUGUGUUUAUUAAGTT against Crp: the z-score was inactive: 1.08.

As to “GGGAUUGUAUGAGUGCACATT against 5330414O08Rik”, the z-score was inactive: 0.369.

Turning to “GGUGAAGAAGGAGACAAAGTT against 1200015A22Rik”, the z-score was inactive: -2.44.

Regarding “GCUGGAUCACACUAUAUGUTT against 4921509E05Rik”, the z-score is inactive: -0.796.

In the case of GCAUAAACAGGCAUUAAAUTT against Sav1, the z-score is inactive: -0.896.

For GGUCAACAUUAAAAUACUGTT against Map2k4, the z-score was inactive: -1.24.

For “CGAGCACAGUGACUACUACTT against A930021H16Rik”, the z-score was inactive: -1.27.

For GCGGCAAUUCAAAUGAGUCTT against Rnf14, the z-score was inactive: 0.256.

For GGAGUACGAGGAGAUUAUGTT against Ubtf, the z-score is inactive: -0.505.

As to GCUAUCAAUACCUCAGUUATT against Syt2, the z-score is inactive: 1.24.

For the sequence GGACUUCCUAUGAAGACAUTT against Neu4, the z-score is inactive: 0.0851.

With CCCAUUAAAAAUCGUUCUGTT against Rcl1, the z-score was inactive: -2.11.

As to GGGUUAAAUGGUUUUAACATT against E2f7, the z-score is inactive: 0.959.

In the case of GGACAGCUACCUCAUCCAUTT against Grcc3f, the z-score was inactive: -0.825.

In the case of ACACUUGCAUCAUCUUUGCTT against Olfr740, the z-score is inactive: -0.846.

In the case of CCAGCUUCAUGCGUUUAAATT against Stx16, the z-score is inactive: 1.07.

For the sequence GGAAUCAUCUGAACACACATT against Ctcf, the z-score was inactive: 1.31.

As to CGGGAUAUCAUCUGAAUAATT against Disp1, the z-score is inactive: -2.11.

Turning to GACCUGUUUUGUCUUUUGCTT against Ms4a4c, the z-score is inactive: 0.341.

Take “GGUUCUUUUUACUCAGUGGTT against 9130019P20Rik”: the z-score is inactive: 0.0201.

Turning to “GGAAGAAAGAGUGUAUCAATT against 4833405L16Rik”, the z-score is inactive: -0.21.

As for CCGGACUCAGGGUUAAAGUTT against Apoc4, the z-score is inactive: -0.737.

In the case of CGGGCAGUACUAUGAUUUGTT against Ppp1cc, the z-score is inactive: -0.141.

Regarding GGUUUCGUCUUGAUAUCUATT against Trpc1, the z-score is inactive: 0.0388.

On to “GGAAAUCAAGCUGAAGUUATT against 4930579C15Rik”, for which the z-score was inactive: 1.46.

For GGAGAAGUUUAAGGAGAUUTT against Dnajb5, the z-score is inactive: -0.391.

As for GGUAAAAAAUGCUUUCAACTT against Olfr1008, the z-score is inactive: 0.547.

Turning to GGGACAUUUCUGUAUUGAGTT against Psg21, the z-score is inactive: -0.435.

With GCAAGACUUGCUGAUAGAGTT against Cyp2j6, the z-score was inactive: 0.19.

Consider CGGACUAUUGGAGACCAACTT against Gpsm2, for which the z-score was inactive: 1.34.

Regarding “GCAAAAUUUACUGUUAGACTT against 4930511H11Rik”, the z-score was inactive: 2.28.

With GGUUGUUUAUACCUGUGAUTT against Cfh, the z-score was inactive: -0.654.

Regarding GCUGUCGUUGAAGGCAUUGTT against Olfr317, the z-score was inactive: -0.568.

In the case of GGGAGCUUUCCAGUAACUGTT against Rfng, the z-score is inactive: -0.336.

GGAUAUUUUGGACUCCUUATT against Gm1382: the z-score was inactive: 0.314.

As for GGGCAAGGUGAAGCAUUAATT against Numa1, the z-score is inactive: -1.85.

For GGUUCAGUGCUUUGUGUUCTT against Il2rg, the z-score is inactive: -0.148.

Take GGAGCAGAUGUCAACAAAATT against Invs: the z-score was inactive: 1.25.

Take CCAAAGCUAGGUCAUUUUATT against Slc31a2: the z-score was inactive: 0.72.

For “GGUUCUAAACCUAGCUUUUTT against 9030227G01Rik”, the z-score is inactive: -0.456.

Take GUGCUUCUGAUCUCCUACATT against Olfr223: the z-score was inactive: 0.804.

CCUAGCAGUACUGUACGGUTT against Kns2: the z-score is inactive: 0.123.

GGUACAAGAUAUUGUGAAATT against Fgd3: the z-score was inactive: -1.08.

GGUGUAGCAACCAACCCAATT against Tpsg1: the z-score was inactive: 0.306.

Consider GGCAGAGCCAGAAAAAUUGTT against Slc30a1, for which the z-score is inactive: 0.162.

In the case of GGACAGAGGACAAGCAGAATT against Ghrl, the z-score is inactive: -1.15.

Consider GGUGCAGUUUUAUACCUAUTT against Rtn4rl1, for which the z-score was inactive: 0.619.

For “GGACAUUGUUGUGACAGUGTT against 4930579E17Rik”, the z-score is inactive: -1.81.

With CCCAGACGAGAACUGUAUCTT against Sqrdl, the z-score is inactive: -1.2.

For GGCCGAAGAAGGAGAAUUGTT against Gdap10, the z-score is inactive: -0.401.

On to “GCAAUGUCUUCAAUGAUCATT against 4932413O14Rik”, for which the z-score was inactive: -0.794.

As to “GGAAAUGAAAAAGUUCUGGTT against 2010106G01Rik”, the z-score is inactive: -1.02.

For CCUAAGACCCUCAGAAAACTT against Pcdhb7, the z-score was inactive: -0.338.

As for GGCCCACAAGAAGAACAAGTT against Zfp423, the z-score was inactive: 0.729.

For the sequence GCGAGCGGCUGUCUAUUAATT against Nkiras2, the z-score is inactive: 0.319.

As to GGUCCUUUAAGGUCGAUCATT against Mllt3, the z-score is inactive: 0.507.

For GGCAAGUUUCCUCUGCCUUTT against Gbgt1, the z-score was inactive: 0.408.

Turning to GGAAUACUUCCUGAAGGAATT against Ms4a3, the z-score is inactive: -1.67.

For GGUCACUGUAAUGAUUUAUTT against Klhdc1, the z-score was inactive: -0.0539.

As for AAUGCAGGUUAUUGUGGGATT against LOC384639, the z-score was inactive: 0.519.

Turning to GGAUGAACACAAAGAACCCTT against Serpinb12, the z-score is inactive: 0.905.

Turning to GGAGUUUGAACAUAUGAAGTT against Rcn1, the z-score is inactive: 1.52.

In the case of GGUUGUGAUGUGGUGGUCATT against Mdh2, the z-score was inactive: 0.222.

As for GGUGGACGUACUUUUUAACTT against Gata3, the z-score was inactive: 1.51.

On to GGAAUUGUUGUCAACAAUCTT against BC005537, for which the z-score was inactive: 0.755.

For GCAGAAAGCACACUCCUACTT against Psors1c2, the z-score was inactive: -0.476.

Turning to CCAGAAACCAAUCUUUCUUTT against Serpinb1a, the z-score is inactive: 0.293.

For GGCAAGCUGUAAAAGAUGCTT against AF233884, the z-score was inactive: -0.208.

With GGGAAUAGUUUAUAUGGACTT against Ccl20, the z-score was inactive: 0.459.

On to CCUUGUGGAUUCUCACUACTT against AI838661, for which the z-score was inactive: -2.51.

“GGCCACUGGGUUUUUCCUGTT against 2310061A22Rik”: the z-score is inactive: 0.22.

As for “GGGUAUUGAUCAUUUUUGGTT against A430107D22Rik”, the z-score is inactive: 0.137.

Regarding GGUGAGUUUUGCUAAAAGUTT against Syp, the z-score is inactive: 1.62.

As for AGGUCAAAAGAAGCCGGAATT against C77604, the z-score is inactive: -2.7.

“GGACUACAGGUAUCGUGAUTT against 4732495G21Rik”: the z-score was inactive: -1.35.

Regarding GCCAACCUUCAAGGAAUAUTT against Cyp2b10, the z-score was inactive: 0.519.

Consider GCGUUGAUUGUCCUCCUGATT against Dos, for which the z-score is inactive: -2.61.

Consider GGUCUAUUGAAAAAUAGGATT against Dock7, for which the z-score was inactive: 0.384.

In the case of GGCAACAGUUCACAAACCATT against Zfp263, the z-score was inactive: -0.793.

With “GCCUGAAUUUUUGAGAACUTT against A430106J12Rik”, the z-score was inactive: 0.0748.

Consider GGCUGAAUGACUACGUGUGTT against Cldn14, for which the z-score is inactive: 0.117.

For GGAAGAAAUGAUAAAUGCATT against Itgbl1, the z-score was inactive: -0.586.

Take GGGCAACCUGGUUACACAUTT against Zfp637: the z-score was inactive: 0.0231.

GGACUUGUUCCUGAAGACATT against D7Wsu128e: the z-score was inactive: 0.164.

On to “GGGAUGAAGACACGAUCAUTT against 2810007J24Rik”, for which the z-score was inactive: -0.828.

GGAUUGUCCACAUGGAACUTT against Ccl27: the z-score was inactive: 0.78.

GGCCAUGAUAGCUGUGUUUTT against Wdr6: the z-score was inactive: -0.285.

GGAAGUUAUUGCCAGCGAGTT against Fbxo5: the z-score is inactive: -0.562.

On to GGUGGAAAGAUCAACAGACTT against Tpst1, for which the z-score was inactive: 0.467.

For the sequence GGCCUUUGCCAACAGGUCATT against Zfp27, the z-score is inactive: 1.57.

GGAAUCAAUGGGAUAUUUUTT against Slc2a2: the z-score is inactive: -0.625.

Take GGGCUUGAUUGUGAAAGAATT against Tlr12: the z-score is inactive: -1.42.

With GCAAUGUGGAAAGUGUAAATT against ORF19, the z-score was inactive: -0.278.

On to GGCUUGGACAAUCUUAGUATT against AU040950, for which the z-score is inactive: 0.837.

As for GGAGAGGAGAUUCAGUACATT against Otc, the z-score was inactive: -0.319.

With CGUAAUGGAGACUACCGAATT against Syn1, the z-score was inactive: 0.393.

GGUAGAUUGCCAACAGUGCTT against Rap1a: the z-score is inactive: -0.455.

GUAUUAUUCCGUUCCUACUTT against Olfr392: the z-score was inactive: -0.086.

CGAAAAACGACACGUAAAATT against Dnmt1: the z-score is inactive: 0.444.

For GUGGAAAACAAGUGGCGGUTT against Cox7c, the z-score was inactive: 3.24.

Take GGCUAUUGUGCAGUUGAAGTT against Plec1: the z-score is inactive: 1.11.

The values above are taken from PubChem BioAssay AID1347423 (Functional Genomics Laboratory (NCATS/FGL), 2020).
